At least one compound was matched to its structure with a doubt left.
What was measured:
[1] = Terminal sterilization (autoclaving) of budesonide suspension (Experiment 2), impurity content; type: physicochemical; conditions: 0.5 mg/mL suspension in 4% polysorbate 80 solution
[2] = long exposure to high temperatures; cited from earlier work
[3] = Dry heat then autoclaving of budesonide dispersed in polysorbate 80 (Experiment 1), impurity content; type: physicochemical

SMILES: CCCC1O[C@@H]2C[C@H]3[C@@H]4CCC5=CC(=O)C=C[C@]5(C)[C@H]4[C@@H](O)C[C@]3(C)[C@]2(C(=O)CO)O1 (some centres unmarked) [budesonide]
- % Total Impurities ([1]; Autoclave 121° C./15 mins): 6.87%
- % Total Impurities ([1]; control, not autoclaved): 0.40%
- effect on finely divided particles [2]: agglomeration
- % Total Impurities ([3]; Oven 100° C./15 mins then autoclave 121° C./15 minutes in polysorbate 80): 2.76%
- % Total Impurities ([3]; Oven 105° C./15 mins then autoclave 121° C./15 minutes in polysorbate 80): 3.19%
- % Total Impurities ([3]; Oven 110° C./15 mins then autoclave 121° C./15 minutes in polysorbate 80): 4.64%
- % Total Impurities ([3]; Oven 115° C./15 mins then autoclave 121° C./15 minutes in polysorbate 80): 3.13%
- % Total Impurities ([3]; Oven 120° C./15 mins then autoclave 121° C./15 minutes in polysorbate 80): 3.64%
- % Total Impurities ([3]; Oven 125° C./15 mins then autoclave 121° C./15 minutes in polysorbate 80): 4.25%
- % Total Impurities ([3]; Oven 130° C./15 mins then autoclave 121° C./15 minutes in polysorbate 80): 4.57%
- % Total Impurities ([3]; dispersed in polysorbate 80, Autoclave 121° C./15 minutes only): 1.19%

From patent publication US6863865B2, “Sterilization of pharmaceuticals” (Breath Limited, priority 2000, dated 2005)
